Assay results reported in patent US9752151B2, “Composition for treatment or metastasis suppression of cancers which includes p34 expression inhibitor or activity inhibitor as active ingredient” (THE ASAN FOUNDATION, priority 2013, dated 2017).

Target: neuronal precursor cell-expressed developmentally down-regulated 4-1 (NEDD4-1), endogenous, in lysates of human cell lines (human) (UniProt P46934)
Assay: immunoprecipitation with anti-NEDD4-1 antibody from cell lysates, tandem affinity purification and mass spectrometry (FIG. 1)

B1: p34 protein (endogenous, in lysates of human cancer cell lines) (protein, UniProt Q9UHV2 1-236, looked up)
chain: MLSKGLKRKREEEEEKEPLAVDSWWLDPGHTAVAQAPPAVASSSLFDLSVLKLHHSLQQSEPDLRHLVLVVNTLRRIQASMAPAAALPPVPSPPAAPSVADNLLASSDAALSASMASLLEDLSHIEGLSQAPQPLADEGPPGRSIGGAAPSLGALDLLGPATGCLLDDGLEGLFEDIDTSMYDNELWAPASEGLKPGPEDGPGKEEAPELDEAELDYLMDVLVGTQALERPPGPGR
In the case of B1, the binding is reported as “binds”.

Results are given in words; binding and its absence hold for the method and conditions named. In cells and extracts the contact can be indirect. A yes stands for co-enrichment or nearness to the bait. Other partners may have been found.
